Assay results taken from doi:10.1101/2020.05.12.092148.

Amino acid sequences for entries named in this document (tags omitted). A change or cut given only in a name is not applied to a line headed by its entry.
UniProt Q8CD54: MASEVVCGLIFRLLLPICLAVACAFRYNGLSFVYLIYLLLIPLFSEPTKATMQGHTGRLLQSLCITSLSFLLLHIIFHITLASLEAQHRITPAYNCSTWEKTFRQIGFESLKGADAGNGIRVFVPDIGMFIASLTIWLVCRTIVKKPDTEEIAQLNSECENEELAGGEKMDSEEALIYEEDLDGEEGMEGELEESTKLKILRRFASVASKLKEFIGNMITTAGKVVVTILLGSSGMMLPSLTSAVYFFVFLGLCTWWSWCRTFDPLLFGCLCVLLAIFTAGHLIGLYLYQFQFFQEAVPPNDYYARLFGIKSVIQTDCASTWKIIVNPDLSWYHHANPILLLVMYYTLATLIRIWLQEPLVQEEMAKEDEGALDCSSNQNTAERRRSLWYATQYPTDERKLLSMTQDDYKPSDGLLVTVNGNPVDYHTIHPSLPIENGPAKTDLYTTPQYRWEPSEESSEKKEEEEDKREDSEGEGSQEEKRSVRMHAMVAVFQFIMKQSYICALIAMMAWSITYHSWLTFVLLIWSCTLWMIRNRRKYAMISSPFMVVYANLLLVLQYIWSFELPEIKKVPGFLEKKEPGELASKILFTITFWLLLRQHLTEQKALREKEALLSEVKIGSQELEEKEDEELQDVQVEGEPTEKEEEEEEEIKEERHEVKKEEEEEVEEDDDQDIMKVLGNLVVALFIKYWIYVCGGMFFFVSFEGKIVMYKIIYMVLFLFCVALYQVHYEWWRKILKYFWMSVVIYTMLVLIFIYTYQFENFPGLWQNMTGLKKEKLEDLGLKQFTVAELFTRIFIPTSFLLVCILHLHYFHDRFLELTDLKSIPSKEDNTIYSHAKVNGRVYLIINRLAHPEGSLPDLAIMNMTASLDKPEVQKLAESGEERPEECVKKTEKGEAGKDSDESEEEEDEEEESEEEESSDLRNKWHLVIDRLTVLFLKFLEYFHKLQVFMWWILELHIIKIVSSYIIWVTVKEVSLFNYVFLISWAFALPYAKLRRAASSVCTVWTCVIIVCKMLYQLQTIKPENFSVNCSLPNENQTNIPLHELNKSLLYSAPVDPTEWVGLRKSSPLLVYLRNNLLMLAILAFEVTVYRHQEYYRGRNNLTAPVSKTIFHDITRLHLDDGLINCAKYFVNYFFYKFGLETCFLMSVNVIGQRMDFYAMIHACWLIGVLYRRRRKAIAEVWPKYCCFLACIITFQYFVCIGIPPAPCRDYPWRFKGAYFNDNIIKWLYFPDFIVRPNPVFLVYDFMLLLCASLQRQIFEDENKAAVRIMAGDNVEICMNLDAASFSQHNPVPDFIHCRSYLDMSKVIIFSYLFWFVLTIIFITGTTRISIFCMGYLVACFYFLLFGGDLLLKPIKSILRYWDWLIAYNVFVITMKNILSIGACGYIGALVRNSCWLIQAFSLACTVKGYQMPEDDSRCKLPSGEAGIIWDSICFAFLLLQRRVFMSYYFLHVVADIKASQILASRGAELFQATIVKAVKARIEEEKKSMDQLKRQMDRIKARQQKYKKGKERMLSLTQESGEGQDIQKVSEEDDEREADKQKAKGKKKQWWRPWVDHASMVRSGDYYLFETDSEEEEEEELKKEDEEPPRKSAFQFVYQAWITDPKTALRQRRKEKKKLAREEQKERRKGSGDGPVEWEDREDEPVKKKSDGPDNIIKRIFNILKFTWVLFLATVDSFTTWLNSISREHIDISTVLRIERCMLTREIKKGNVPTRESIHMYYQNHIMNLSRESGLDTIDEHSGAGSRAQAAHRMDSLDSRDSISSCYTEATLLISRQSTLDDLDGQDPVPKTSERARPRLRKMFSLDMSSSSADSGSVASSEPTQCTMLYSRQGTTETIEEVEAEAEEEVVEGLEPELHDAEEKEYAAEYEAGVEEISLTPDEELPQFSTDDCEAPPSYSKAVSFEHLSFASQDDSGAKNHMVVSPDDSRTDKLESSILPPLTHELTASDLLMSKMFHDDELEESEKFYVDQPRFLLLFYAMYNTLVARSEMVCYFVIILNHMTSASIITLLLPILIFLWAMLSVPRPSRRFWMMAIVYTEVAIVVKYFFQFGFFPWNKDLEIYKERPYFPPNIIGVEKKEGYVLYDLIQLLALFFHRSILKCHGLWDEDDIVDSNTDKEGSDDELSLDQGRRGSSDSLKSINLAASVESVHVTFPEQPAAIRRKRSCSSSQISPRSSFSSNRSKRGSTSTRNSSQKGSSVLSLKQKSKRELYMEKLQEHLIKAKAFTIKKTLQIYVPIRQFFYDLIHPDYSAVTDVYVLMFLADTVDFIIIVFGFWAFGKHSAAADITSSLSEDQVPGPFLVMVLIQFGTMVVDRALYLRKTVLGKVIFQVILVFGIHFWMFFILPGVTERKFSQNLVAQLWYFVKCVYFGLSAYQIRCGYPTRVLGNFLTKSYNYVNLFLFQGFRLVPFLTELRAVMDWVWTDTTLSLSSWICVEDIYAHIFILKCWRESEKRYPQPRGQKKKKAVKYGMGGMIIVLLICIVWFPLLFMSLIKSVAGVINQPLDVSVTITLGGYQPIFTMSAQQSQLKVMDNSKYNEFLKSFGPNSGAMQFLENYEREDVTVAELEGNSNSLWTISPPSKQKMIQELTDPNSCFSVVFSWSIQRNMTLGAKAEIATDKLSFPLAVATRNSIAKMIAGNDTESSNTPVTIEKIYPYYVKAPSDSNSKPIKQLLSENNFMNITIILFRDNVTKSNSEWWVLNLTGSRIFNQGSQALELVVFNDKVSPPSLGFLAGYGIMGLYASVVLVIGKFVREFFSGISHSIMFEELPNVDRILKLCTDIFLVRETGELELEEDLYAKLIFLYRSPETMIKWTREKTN
UniProt F1PAA9: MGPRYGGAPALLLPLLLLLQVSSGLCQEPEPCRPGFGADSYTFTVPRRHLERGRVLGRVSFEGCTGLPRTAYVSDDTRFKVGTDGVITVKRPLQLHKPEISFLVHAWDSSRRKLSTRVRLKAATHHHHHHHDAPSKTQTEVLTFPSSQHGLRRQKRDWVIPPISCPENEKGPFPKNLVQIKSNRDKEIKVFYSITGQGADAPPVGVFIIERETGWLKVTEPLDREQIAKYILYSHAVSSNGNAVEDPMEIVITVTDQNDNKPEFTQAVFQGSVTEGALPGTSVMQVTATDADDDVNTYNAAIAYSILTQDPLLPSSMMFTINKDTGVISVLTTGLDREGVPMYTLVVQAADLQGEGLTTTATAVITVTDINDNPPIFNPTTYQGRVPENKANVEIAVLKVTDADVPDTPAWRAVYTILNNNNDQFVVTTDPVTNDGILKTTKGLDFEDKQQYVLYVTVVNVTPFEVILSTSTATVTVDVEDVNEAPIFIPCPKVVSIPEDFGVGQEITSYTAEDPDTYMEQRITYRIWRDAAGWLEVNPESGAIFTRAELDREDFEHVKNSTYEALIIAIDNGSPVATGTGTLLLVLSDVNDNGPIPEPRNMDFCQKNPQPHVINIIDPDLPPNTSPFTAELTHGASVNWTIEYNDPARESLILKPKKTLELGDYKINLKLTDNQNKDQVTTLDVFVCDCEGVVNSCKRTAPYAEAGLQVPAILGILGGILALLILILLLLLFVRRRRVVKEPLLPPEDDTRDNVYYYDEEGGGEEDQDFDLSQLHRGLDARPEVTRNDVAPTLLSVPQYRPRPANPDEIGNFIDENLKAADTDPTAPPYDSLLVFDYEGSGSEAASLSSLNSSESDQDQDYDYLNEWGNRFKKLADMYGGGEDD

What was measured:
[1] = biological target: T1, purified His-tagged Cap fragment protein of Piezo1 (mouse) (UniProt E2JF22); test: pull-down
T1 sequence: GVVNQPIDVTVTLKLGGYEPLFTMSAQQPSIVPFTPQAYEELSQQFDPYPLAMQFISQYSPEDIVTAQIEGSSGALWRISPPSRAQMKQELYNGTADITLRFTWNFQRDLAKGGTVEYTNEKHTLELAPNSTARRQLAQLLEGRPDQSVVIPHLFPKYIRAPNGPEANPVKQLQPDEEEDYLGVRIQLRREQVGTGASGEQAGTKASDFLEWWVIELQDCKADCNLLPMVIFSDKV

[2] = biological target: Piezo1-GST fusion protein (Piezo1-pp-GST-IRES-GFP construct) (mouse) (UniProt E2JF22); test: pull-down
[3] = biological target: Piezo1-GST fusion protein (Piezo1-pp-GST-IRES-GFP construct) (mouse) (UniProt E2JF22); test: pull-down; remark: listed apart in the source
Piezo1-ΔCap (mouse) = Piezo1-ΔCap (mouse) (UniProt E2JF22); test: pull-down
[4] = biological target: T2, Piezo1 pore module fragment, residues 2172-2547 (mouse) (UniProt E2JF22); test: pull-down
T2 sequence: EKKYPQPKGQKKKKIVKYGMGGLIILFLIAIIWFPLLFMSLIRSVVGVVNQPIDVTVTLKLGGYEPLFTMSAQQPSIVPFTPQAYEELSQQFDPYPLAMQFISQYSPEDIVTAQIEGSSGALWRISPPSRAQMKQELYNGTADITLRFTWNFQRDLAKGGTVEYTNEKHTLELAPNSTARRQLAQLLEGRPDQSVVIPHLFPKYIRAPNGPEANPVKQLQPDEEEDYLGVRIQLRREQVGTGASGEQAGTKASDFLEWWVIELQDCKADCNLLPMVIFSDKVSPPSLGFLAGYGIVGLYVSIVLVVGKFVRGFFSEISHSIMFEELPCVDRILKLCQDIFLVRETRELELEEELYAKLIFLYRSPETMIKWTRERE

[5] = biological target: Piezo2-GST fusion protein (mouse) (UniProt Q8CD54); test: pull-down
[6] = biological target: Piezo1-GST fusion protein (Piezo1-pp-GST-IRES-GFP construct) (mouse) (UniProt E2JF22); test: pull-down; remark: listed apart in the source
[7] = biological target: Piezo1-GST fusion protein (Piezo1-pp-GST-IRES-GFP construct) (mouse) (UniProt E2JF22); test: pull-down; remark: listed apart in the source
[8] = biological target: Flag-tagged full-length E-cadherin (canine) (UniProt F1PAA9); test: pull-down
[9] = biological target: Flag-tagged E-cadherin N-terminal ectodomain (ED), residues 1-711 (canine) (UniProt F1PAA9); test: co-IP
[10] = biological target: Flag-tagged full-length E-cadherin (canine) (UniProt F1PAA9); test: co-IP
[11] = biological target: GFP-E-cadherin fusion protein (canine) (canine) (UniProt F1PAA9); test: pull-down

## Flag-tagged E-cadherin N-terminal ectodomain (ED), residues 1-711 (from UniProt F1PAA9) (domain or fragment)
[1]
  binding: binds
[2]
  binding: binds

## Flag-tagged full-length E-cadherin (from UniProt F1PAA9)
[1]
  binding: binds
[2]
  binding: binds

## GFP-E-cadherin fusion protein (canine) (from UniProt F1PAA9)
[3]
  binding: binds
Piezo1-ΔCap (mouse)
  binding: binds
[2]
  binding: binds
[4]
  binding: binds
[5]
  binding: binds
[6]
  binding: binds
[7]
  binding: no binding (only in the absence of Ca2+)

B1: purified His-tagged Cap fragment protein of Piezo1 (domain or fragment, UniProt E2JF22 2218-2453)
chain: T1 sequence
[8]
  binding: binds
[9]
  binding: binds
[10]
  binding: binds

B2: membrane-permeable linker-peptide of mouse Piezo1 (amino acids 2171-2185) (peptide)
peptide: TEKKYPQPKGQKKKK
modifications: myristoylated at its N-terminus
[11]
  binding: binds

Read-outs that look alike come from different tables or passages of the source. No constants are given. Whether binding was seen depends on the method and setting. In cells and extracts the contact can be indirect. For part of these data: A result given as binding can be weak or reduced; the word gives no strength. For part of these data: Where a sequence is shown, tags or fusion partners need not be part of it.
